The values are deposited in ChEMBL (CHEMBL3988442, “University of Dundee, Small-Polar-MMV Screening Library” (2021)).

By UniProt entry, the sequences of proteins in these tests, tags left out. Residues count along the entry.
UniProt Q8IDJ8, 1-583: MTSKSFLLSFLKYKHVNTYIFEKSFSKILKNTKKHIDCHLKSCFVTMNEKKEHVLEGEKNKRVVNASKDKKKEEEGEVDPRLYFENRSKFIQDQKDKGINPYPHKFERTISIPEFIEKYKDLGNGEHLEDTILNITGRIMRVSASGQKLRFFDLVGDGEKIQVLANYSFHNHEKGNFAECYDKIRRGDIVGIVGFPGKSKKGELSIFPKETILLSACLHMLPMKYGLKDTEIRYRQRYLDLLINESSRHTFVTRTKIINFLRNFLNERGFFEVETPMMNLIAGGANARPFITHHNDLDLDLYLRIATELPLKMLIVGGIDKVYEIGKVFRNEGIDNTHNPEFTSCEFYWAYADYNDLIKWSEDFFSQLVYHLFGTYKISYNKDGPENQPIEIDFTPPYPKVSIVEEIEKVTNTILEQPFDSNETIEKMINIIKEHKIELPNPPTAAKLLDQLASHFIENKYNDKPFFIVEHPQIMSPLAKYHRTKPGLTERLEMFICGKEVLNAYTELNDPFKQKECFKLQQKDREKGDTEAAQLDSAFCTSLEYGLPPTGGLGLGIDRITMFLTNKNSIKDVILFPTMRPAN
UniProt Q4DA54, 1-478: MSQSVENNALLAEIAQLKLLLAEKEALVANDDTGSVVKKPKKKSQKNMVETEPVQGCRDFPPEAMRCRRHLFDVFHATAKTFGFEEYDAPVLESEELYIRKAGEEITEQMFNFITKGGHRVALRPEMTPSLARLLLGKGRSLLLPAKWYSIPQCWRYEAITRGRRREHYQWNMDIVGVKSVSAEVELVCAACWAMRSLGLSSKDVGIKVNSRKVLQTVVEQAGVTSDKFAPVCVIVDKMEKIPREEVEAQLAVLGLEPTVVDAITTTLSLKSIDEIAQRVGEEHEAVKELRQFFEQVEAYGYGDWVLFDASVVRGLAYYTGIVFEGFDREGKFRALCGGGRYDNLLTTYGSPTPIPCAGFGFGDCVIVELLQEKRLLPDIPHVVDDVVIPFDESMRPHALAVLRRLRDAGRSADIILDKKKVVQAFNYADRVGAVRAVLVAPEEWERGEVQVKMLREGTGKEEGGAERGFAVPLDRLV
UniProt I6X8D2, whole entry: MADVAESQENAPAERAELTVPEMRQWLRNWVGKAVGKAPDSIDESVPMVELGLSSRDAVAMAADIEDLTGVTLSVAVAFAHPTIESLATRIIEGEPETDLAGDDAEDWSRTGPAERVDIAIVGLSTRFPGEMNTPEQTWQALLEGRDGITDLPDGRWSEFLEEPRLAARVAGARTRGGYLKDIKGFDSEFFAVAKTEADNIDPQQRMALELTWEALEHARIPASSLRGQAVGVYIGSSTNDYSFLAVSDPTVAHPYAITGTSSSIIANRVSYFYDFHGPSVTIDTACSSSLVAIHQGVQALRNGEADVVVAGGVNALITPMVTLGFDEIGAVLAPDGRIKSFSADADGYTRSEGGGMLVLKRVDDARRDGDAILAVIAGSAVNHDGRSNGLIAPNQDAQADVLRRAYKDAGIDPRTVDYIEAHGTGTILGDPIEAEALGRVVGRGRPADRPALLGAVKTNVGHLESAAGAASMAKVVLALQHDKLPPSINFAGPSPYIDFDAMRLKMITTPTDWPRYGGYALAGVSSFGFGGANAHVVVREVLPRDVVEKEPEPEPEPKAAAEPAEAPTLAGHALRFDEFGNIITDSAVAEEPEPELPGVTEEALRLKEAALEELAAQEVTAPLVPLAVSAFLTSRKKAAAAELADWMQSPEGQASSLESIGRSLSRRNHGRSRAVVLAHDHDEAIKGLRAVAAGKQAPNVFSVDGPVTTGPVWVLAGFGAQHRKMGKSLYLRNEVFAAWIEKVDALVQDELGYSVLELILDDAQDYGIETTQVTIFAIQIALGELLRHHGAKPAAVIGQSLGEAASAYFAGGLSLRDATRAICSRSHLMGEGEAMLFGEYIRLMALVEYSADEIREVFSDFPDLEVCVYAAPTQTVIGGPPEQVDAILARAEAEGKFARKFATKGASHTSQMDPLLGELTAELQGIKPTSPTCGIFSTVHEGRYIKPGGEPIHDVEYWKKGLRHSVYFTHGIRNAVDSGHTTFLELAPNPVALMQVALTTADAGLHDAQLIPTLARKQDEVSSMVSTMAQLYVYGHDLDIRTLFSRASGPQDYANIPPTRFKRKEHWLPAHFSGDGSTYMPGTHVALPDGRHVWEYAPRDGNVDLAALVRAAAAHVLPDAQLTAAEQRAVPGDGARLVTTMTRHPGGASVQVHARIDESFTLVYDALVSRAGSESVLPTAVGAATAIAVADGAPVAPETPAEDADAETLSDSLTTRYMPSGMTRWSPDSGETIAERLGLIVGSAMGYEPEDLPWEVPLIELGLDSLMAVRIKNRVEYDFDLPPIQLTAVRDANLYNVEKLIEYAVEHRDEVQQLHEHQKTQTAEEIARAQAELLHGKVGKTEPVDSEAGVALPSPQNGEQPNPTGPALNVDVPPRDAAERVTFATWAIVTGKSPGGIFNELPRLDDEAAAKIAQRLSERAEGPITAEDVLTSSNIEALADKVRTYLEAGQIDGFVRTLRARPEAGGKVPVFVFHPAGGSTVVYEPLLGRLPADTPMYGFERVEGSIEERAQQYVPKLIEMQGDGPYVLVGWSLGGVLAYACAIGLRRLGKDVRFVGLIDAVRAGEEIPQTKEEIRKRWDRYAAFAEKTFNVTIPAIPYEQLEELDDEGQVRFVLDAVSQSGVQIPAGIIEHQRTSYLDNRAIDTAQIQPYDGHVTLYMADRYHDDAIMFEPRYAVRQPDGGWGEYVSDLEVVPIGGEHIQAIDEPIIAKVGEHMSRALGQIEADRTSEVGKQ

The filed quantity is “Percent Effect” (%). The record does not define 0% and 100%; most values in the screen are far below 50% and negative numbers occur (in some assays of this library far below -100). This is an unselected part of the compounds tested.

A: 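Lysine-tRNA ligase, Plasmodium falciparum 3D7 (UniProt Q8IDJ8). Enzyme assay of the cytosolic lysyl-tRNA synthetase in 384-well plates, read by luminescence. Tested at 30 µM. Higher reads as stronger inhibition, judged from the few compounds that gave an IC50. Size under these conditions: about 69,000 compounds, about 49 of them at 50% or above in at least one test.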
B: 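Enzyme assay of histidyl-tRNA synthetase; the read-out is not stated. Target: Histidine-tRNA ligase, Trypanosoma cruzi CL Brener (UniProt Q4DA54). Compounds at 30 µM. Direction is inferred from retests: higher values go with stronger inhibition. Size under these conditions: about 69,000 compounds, about 31 of them at 50% or above in at least one test.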
C: 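Cell assay of Leishmania donovani living inside macrophages; the read-out is not stated. Tested at 30 µM. The record gives no direction; compounds that gave an IC50 in retests scored well above the rest, so higher reads as stronger inhibition. About 69,000 compounds were tested under these conditions; 1.5% (about 1,000) showed 50% or more at least once.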
D: 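Enzyme assay of the thioesterase domain of polyketide synthase 13; the read-out is not stated. Target: Polyketide synthase Pks13, Mycobacterium tuberculosis (UniProt I6X8D2). Tested at 30 µM. The record gives no direction; the compounds picked for IC50 retests had high values, so higher reads as stronger inhibition. Of about 67,000 compounds tested this way, about 300 (0.46%) reached 50% or more in at least one test.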

* O=C(O)C(F)(F)F.O=C(O)C(F)(F)F.[H][C@@]12OCCN(Cc3ccoc3)[C@@]1([H])CC[C@H]2OCCN1CCCC1 | C: 13.42%
* CC(Cc1ccc(Cl)cc1)NC(=O)Nc1cnn(CC(N)=O)c1 (stereo not given) | A: 3.384%; B: 5.634%; C: 21.81%; D: -8.093%
* Cc1cc(C)cc(CCC(=O)N(C)CCc2cn[nH]c2)c1 | A: 2.807%; B: 2.146%; C: -11.26%; D: -6.074%
* O=C(c1ccnnc1)N1CCc2ncnc(C3CCOC3)c2CC1 (stereo not given) | A: 0.5813%; B: 7.143%; C: -7.614%; D: -14.09%
* Clc1ccc(OCCNCCn2cccn2)cc1 | A: -3.814%; B: 3.944%; C: 15.35%; D: -41.27%
* CC(C)CN1CCC2(CC1)CN(C(=O)C(C)C)C2 | A: 5.965%; B: 7.767%; D: -24.62%
* COc1ccc(C(=O)N2C[C@@H](C(=O)O)[C@H](c3cccc(F)c3)C2)c(O)c1 | A: -1.235%; B: 1.163%; C: -3.091%; D: 15.16%
* CC(NCc1ccc(C(N)=O)cc1)c1ccc(Cl)c(Cl)c1.Cl (stereo not given) | C: 2.753%
* O=C(NCc1nn(-c2ccccc2)c2c1CCC2)N1CCSCC1 | A: -1.618%; B: 0.7634%; C: 5.234%; D: -24.56%
* CS(=O)(=O)NCC1CCCN(C(=O)c2cccc(F)c2)C1 (stereo not given) | A: 1.814%; B: 6.686%; C: 25.62%; D: -7.104%
* O=C(c1ccno1)N1CC(c2nc(-c3ccco3)no2)C1 | A: 5.944%; B: -3.415%; C: 20.7%; D: 0.7827%
* CS(=O)(=O)CC1(CNc2c(C#N)cnc3ccc(Cl)cc23)CC1 | A: 7.067%; B: 2.762%; C: -4.053%; D: -28.72%
* CC(C)c1nn(C)c(N(C)C)c1CNC1CCOc2c(F)cccc21.Cl (stereo not given) | C: 41.07%
* CNC(=O)C(C)(C)CNC(=O)Nc1cc(C)ccn1 | A: 0.5168%; B: -0.5405%; C: 5.306%
* O=C(c1ccc(F)cc1F)N1C[C@H]2CC[C@@H]1CN(Cc1ccccc1)C2 | A: 3.736%; B: 2.618%
* COc1cccc(CC(C)NC(=O)NC(C)C)c1 (stereo not given) | A: -3.587%; B: 7.595%; C: -0.01169%; D: -8.456%
* COC(=O)CNC(=O)c1cccc(C(=O)N(C)c2ccccc2)c1 | A: -1.66%; B: 6.548%; C: -7.566%; D: 1.159%
* COC(=O)CN1CCN(c2cccc(C)c2)CC1 | A: 5.184%; B: 0%; C: 26.09%; D: -12.22%
* Cc1ccc2c(c1)CN(C(=O)c1ccccc1F)C(CN(C)C)CO2.Cl (stereo not given) | C: 25.18%

Some entries from above, unchanged:

* COc1ccc(C(=O)N2C[C@@H](C(=O)O)[C@H](c3cccc(F)c3)C2)c(O)c1 | A: -1.235%; B: 1.163%; C: -3.091%; D: 15.16%
* CNC(=O)C(C)(C)CNC(=O)Nc1cc(C)ccn1 | A: 0.5168%; B: -0.5405%; C: 5.306%